Binding data for three molecules are collected here from article PMC8068763.

Protein sequences, listed by entry. Tags and fused reporters are not part of them.
UniProt Q32KD4: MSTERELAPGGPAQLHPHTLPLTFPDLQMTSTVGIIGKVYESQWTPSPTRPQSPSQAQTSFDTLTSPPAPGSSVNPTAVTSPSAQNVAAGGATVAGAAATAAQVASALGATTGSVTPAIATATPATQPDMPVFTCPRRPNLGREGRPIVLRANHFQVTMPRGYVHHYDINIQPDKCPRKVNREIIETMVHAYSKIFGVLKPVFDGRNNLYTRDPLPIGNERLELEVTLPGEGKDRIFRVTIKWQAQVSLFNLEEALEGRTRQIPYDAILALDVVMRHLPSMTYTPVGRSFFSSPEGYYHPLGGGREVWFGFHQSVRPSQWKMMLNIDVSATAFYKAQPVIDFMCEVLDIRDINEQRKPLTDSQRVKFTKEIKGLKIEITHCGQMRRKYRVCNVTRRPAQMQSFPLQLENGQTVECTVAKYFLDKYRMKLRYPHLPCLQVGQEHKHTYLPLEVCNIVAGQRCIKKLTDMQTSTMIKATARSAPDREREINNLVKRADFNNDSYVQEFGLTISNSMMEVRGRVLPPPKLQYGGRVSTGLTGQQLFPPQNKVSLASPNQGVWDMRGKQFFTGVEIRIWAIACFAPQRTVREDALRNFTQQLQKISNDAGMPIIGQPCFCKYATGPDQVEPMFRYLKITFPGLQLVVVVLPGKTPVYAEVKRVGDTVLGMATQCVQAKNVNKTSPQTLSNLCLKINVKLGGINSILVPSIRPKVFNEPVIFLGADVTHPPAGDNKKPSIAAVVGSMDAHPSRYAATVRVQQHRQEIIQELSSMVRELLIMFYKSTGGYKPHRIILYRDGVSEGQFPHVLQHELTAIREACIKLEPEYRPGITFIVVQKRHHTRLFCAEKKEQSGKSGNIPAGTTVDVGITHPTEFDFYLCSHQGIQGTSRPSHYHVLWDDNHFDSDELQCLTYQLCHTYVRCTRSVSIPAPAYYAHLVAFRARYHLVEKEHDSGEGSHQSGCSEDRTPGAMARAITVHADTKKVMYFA

Experiment [1] has as its target T1, Bag of marbles (Bam), full length, yeast two-hybrid fusion (Drosophila) (UniProt P22745).
T1 sequence: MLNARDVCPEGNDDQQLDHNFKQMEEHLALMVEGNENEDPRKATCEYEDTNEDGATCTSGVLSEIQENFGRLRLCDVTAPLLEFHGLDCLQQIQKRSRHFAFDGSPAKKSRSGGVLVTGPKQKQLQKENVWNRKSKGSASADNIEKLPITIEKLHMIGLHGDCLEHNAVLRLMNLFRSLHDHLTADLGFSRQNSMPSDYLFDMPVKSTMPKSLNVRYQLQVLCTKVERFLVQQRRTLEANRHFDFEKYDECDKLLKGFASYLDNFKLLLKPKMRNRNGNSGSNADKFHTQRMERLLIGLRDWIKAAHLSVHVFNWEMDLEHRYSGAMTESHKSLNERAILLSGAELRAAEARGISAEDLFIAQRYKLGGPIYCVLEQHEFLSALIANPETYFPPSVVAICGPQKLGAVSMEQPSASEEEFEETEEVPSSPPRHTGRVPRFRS
Nature of the experiment: two-hybrid; LexA DBD and GAD (pACT2) fusions in yeast YPH500 with pSH18-34 lexAop-LacZ reporter; X-gal patching on glucose plates 24-48 h, then liquid beta-galactosidase assay.

Experiment [2] addresses Argonaute 1 (AGO1), full length, yeast two-hybrid fusion (Drosophila) (UniProt Q32KD4). The experiment is described as above.
In experiment [3] the target is T2, Flag-tagged Bam (Drosophila) (UniProt P22745).
T2 sequence: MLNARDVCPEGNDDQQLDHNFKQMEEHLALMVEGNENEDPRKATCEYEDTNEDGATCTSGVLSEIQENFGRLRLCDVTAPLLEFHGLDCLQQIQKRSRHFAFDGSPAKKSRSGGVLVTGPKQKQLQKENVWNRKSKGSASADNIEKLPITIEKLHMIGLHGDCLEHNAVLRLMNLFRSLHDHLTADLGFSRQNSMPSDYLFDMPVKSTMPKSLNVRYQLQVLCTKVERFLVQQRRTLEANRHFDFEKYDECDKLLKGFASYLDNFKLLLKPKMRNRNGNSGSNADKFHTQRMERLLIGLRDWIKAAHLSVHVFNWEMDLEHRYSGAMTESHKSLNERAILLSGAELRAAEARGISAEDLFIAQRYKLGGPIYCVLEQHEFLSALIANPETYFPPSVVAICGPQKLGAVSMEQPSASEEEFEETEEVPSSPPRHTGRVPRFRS
The experiment in a line: co-IP; lysates of transfected S2 cells (72 h), RIPA buffer, anti-FLAG M2 agarose beads, 4 °C overnight, Western blot.

These are yes or no findings as the source states them, for the method shown. For some of these results: Binding seen in cells or lysates may run through a third protein. Some results given as binding are weak or reduced against the parent protein; the word gives no strength. Sequences can lack the tags named with a protein.

B1: Brain tumor (Brat), full length, yeast two-hybrid fusion (protein, UniProt Q8MQJ9 1-1037)
chain: MASSPTPSLDSMRGGANSIESYEHAGYLSDSPLTLSGSSPPASDSAICSDEYTGGSSVKSRSEVTVINGHHPISASVSSSSSASSSSCSSSSSSSSSSSSSSSSTSGLSGCGSTSSSVISANNVASSNGPGVIGSNLQSSNNGGNSGISSLVVGAGKGSNSSSNSSSSNTSANGSPPRCTACKSKCSDAVAKCFECQSYLCANCVTAHEFMHCFNGHNVCLIKGFEASTTGTPLSVGSPSNNPASNEFKYASSLTMMLQQQQQLDSQQQQQQQQLLPAQPMSQLSKIVLAAAAQANSQEQQREDSIYGSLHPQQQQQQQQQQQRQLFCPRHKQELLKFSCRTCCILVCKECIVLEHSTGLHELENVQSPGMTTSTGSTANESALQTLLADMRGKIGEIVGIAGNSDQNLTKVKLQYQKAHNELNETHQFFASMLDERKTELLKELETLYTAKVNSNNSWQQRSRDLIDKGLATCEAVERSPAPPSSLLTEALLLRKSLEQQLQTGIQEMQLPFEIEFMSNYQSIQAGVRNTFGYIRANSSDGGPTGMSLTSNGHGKQPPIARPTQSASNSSASSAGSGHHGHHQQSHHHGHHNHHQTAHHQQLQAQSSLHGLGLGLSGASLLDSSSSAGGAVGAFSNGGLLLGGRDRNALAVEQHFGELMPKRGGGGYTGSNGSATSAVAHYNPYEKWSNGGSDNLFSSVTSGVSGSSAVADAFASLSAVGGSVVSGAGAGGSTVSSESLLDLTNKLLSATIYPPKSQIKRQKMIYHCKFGEFGVMEGQFTEPSGVAVNAQNDIIVADTNNHRIQIFDKEGRFKFQFGECGKRDSQLLYPNRVAVVRNSGDIIVTERSPTHQIQIYNQYGQFVRKFGATILQHPRGVTVDNKGRIIVVECKVMRVIIFDQNGNVLHKFGCSKHLEFPNGVVVNDKQEIFISDNRAHCVKVFNYEGQYLRQIGGEGITNYPIGVGINSNGEILIADNHNNFNLTIFTQDGQLISALESKVKHAQCFDVALMDDGSVVLASKDYRLYIYRYVQLAPVGM
B1: the binding result in experiment [1] and in experiment [2] was “binds” each time.

B2: Brat in S2 cells (protein, UniProt Q8MQJ9 1-1037)
chain: MASSPTPSLDSMRGGANSIESYEHAGYLSDSPLTLSGSSPPASDSAICSDEYTGGSSVKSRSEVTVINGHHPISASVSSSSSASSSSCSSSSSSSSSSSSSSSSTSGLSGCGSTSSSVISANNVASSNGPGVIGSNLQSSNNGGNSGISSLVVGAGKGSNSSSNSSSSNTSANGSPPRCTACKSKCSDAVAKCFECQSYLCANCVTAHEFMHCFNGHNVCLIKGFEASTTGTPLSVGSPSNNPASNEFKYASSLTMMLQQQQQLDSQQQQQQQQLLPAQPMSQLSKIVLAAAAQANSQEQQREDSIYGSLHPQQQQQQQQQQQRQLFCPRHKQELLKFSCRTCCILVCKECIVLEHSTGLHELENVQSPGMTTSTGSTANESALQTLLADMRGKIGEIVGIAGNSDQNLTKVKLQYQKAHNELNETHQFFASMLDERKTELLKELETLYTAKVNSNNSWQQRSRDLIDKGLATCEAVERSPAPPSSLLTEALLLRKSLEQQLQTGIQEMQLPFEIEFMSNYQSIQAGVRNTFGYIRANSSDGGPTGMSLTSNGHGKQPPIARPTQSASNSSASSAGSGHHGHHQQSHHHGHHNHHQTAHHQQLQAQSSLHGLGLGLSGASLLDSSSSAGGAVGAFSNGGLLLGGRDRNALAVEQHFGELMPKRGGGGYTGSNGSATSAVAHYNPYEKWSNGGSDNLFSSVTSGVSGSSAVADAFASLSAVGGSVVSGAGAGGSTVSSESLLDLTNKLLSATIYPPKSQIKRQKMIYHCKFGEFGVMEGQFTEPSGVAVNAQNDIIVADTNNHRIQIFDKEGRFKFQFGECGKRDSQLLYPNRVAVVRNSGDIIVTERSPTHQIQIYNQYGQFVRKFGATILQHPRGVTVDNKGRIIVVECKVMRVIIFDQNGNVLHKFGCSKHLEFPNGVVVNDKQEIFISDNRAHCVKVFNYEGQYLRQIGGEGITNYPIGVGINSNGEILIADNHNNFNLTIFTQDGQLISALESKVKHAQCFDVALMDDGSVVLASKDYRLYIYRYVQLAPVGM
B2: the binding result in experiment [3] is “binds”.

B3: Bag of marbles (Bam), full length, yeast two-hybrid fusion (protein, UniProt P22745 1-442)
chain: MLNARDVCPEGNDDQQLDHNFKQMEEHLALMVEGNENEDPRKATCEYEDTNEDGATCTSGVLSEIQENFGRLRLCDVTAPLLEFHGLDCLQQIQKRSRHFAFDGSPAKKSRSGGVLVTGPKQKQLQKENVWNRKSKGSASADNIEKLPITIEKLHMIGLHGDCLEHNAVLRLMNLFRSLHDHLTADLGFSRQNSMPSDYLFDMPVKSTMPKSLNVRYQLQVLCTKVERFLVQQRRTLEANRHFDFEKYDECDKLLKGFASYLDNFKLLLKPKMRNRNGNSGSNADKFHTQRMERLLIGLRDWIKAAHLSVHVFNWEMDLEHRYSGAMTESHKSLNERAILLSGAELRAAEARGISAEDLFIAQRYKLGGPIYCVLEQHEFLSALIANPETYFPPSVVAICGPQKLGAVSMEQPSASEEEFEETEEVPSSPPRHTGRVPRFRS
As for B3, the binding result in experiment [2] was “no binding”.
